Experimental data: article PMC6695381
Results are given in words; binding and its absence hold for the method and conditions named. For part of these data: Binding seen in cells or lysates may run through a third protein. Some binding calls cover weakened binding; strength is not graded here. Values belong to the molecule of their own block, whether it stands above or below them.

Amino acid sequences for entries named in this document (tags omitted).
UniProt P49069: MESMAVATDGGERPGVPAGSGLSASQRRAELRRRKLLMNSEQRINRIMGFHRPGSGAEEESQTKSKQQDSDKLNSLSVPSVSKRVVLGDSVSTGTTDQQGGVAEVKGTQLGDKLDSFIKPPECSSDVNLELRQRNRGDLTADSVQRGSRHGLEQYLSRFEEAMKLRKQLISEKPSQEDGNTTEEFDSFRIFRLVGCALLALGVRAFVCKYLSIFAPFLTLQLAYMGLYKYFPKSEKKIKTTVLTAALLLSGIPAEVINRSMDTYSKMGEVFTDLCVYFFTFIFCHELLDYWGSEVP

Legend:
[1] = molecular target: T1, Tryptophan rich basic protein (WRB) (human (endogenous in HeLa)) (UniProt O00258); experiment: native gel or EMSA; BN-PAGE (6-15% gradient gels) and immunoblot of HeLa membrane fraction solubilized with 0.5% n-Dodecyl beta-D-maltoside in 500 mM aminocaproic acid, 50 mM Bis-Tris-HCl pH 7.0, 1 mM EDTA
T1 sequence: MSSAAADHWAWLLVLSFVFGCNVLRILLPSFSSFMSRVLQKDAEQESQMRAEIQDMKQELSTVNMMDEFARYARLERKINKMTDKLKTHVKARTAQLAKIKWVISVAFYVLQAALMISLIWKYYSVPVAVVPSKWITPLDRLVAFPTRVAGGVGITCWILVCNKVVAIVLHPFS

[2] = molecular target: T1, Tryptophan rich basic protein (WRB) (human (endogenous in HeLa)); experiment: co-IP; endogenous proteins; HeLa postnuclear supernatant in 0.6% Deoxy Big Chaps, 50 mM Hepes-K+ pH 7.4, 250 mM sorbitol, 70 mM potassium acetate, 5 mM EDTA, 2.5 mM Mg(OAc)2; anti-CAML, anti-WRB or non-immune rabbit IgG plus protein G agarose, overnight at 4 °C; SDS-PAGE/IB
[3] = molecular target: Calcium-modulating cyclophilin ligand (CAML) (human (endogenous in HeLa)) (UniProt P49069); experiment: as above

binding [1]: binds
binding [2]: binds
Molecule: Calcium-modulating cyclophilin ligand (CAML) (from UniProt P49069 1-296)

binding [3]: binds
B1: Tryptophan rich basic protein (WRB) (protein, UniProt O00258 1-174)
chain: T1 sequence
